Results: article doi:10.1101/2022.09.01.506096
Results are given in words; binding and its absence hold for the method and conditions named. For some of these results: In cells and extracts the contact can be indirect. Some entries that bind do so weakly or less than the wild type. For some of these results: Where a sequence is shown, tags or fusion partners need not be part of it.

By UniProt entry, the sequences of proteins in these tests, tags left out.
UniProt O60488: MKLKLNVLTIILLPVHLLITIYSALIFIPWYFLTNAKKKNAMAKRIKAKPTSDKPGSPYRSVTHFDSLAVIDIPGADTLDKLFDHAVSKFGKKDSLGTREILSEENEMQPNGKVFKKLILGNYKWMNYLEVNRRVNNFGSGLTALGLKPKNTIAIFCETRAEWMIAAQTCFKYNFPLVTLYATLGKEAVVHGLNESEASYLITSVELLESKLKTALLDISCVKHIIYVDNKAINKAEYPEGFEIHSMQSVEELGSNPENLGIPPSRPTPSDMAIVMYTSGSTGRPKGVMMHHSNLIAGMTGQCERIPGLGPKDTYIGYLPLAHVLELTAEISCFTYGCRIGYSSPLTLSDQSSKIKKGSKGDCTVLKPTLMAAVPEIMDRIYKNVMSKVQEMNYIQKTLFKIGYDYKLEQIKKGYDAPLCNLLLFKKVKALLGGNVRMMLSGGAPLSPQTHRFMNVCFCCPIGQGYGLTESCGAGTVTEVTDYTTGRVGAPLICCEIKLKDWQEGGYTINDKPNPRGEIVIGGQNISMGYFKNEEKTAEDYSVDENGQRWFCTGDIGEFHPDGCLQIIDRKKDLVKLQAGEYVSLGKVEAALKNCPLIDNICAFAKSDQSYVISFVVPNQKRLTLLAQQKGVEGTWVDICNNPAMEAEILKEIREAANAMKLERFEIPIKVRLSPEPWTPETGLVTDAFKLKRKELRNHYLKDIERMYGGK

Key:
[1] = target: acyl-CoA synthetase long-chain family member 4 (ACSL4) (human (endogenous in OVCAR-8)) (UniProt O60488); assay: co-IP
MMD MaMTH bait = target: T1, MMD MaMTH bait (UniProt Q15546); assay: two-hybrid
T1 sequence: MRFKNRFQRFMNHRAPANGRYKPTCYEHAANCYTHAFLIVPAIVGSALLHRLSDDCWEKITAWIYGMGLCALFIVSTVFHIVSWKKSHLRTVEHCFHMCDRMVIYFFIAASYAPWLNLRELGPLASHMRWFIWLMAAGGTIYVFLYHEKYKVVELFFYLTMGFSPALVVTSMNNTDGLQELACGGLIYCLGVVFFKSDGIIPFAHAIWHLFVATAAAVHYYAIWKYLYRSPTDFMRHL

[2] = target: T2, MBOAT7 MaMTH bait (membrane-bound O-acyltransferase family member 7) (UniProt Q96N66); assay: two-hybrid
T2 sequence: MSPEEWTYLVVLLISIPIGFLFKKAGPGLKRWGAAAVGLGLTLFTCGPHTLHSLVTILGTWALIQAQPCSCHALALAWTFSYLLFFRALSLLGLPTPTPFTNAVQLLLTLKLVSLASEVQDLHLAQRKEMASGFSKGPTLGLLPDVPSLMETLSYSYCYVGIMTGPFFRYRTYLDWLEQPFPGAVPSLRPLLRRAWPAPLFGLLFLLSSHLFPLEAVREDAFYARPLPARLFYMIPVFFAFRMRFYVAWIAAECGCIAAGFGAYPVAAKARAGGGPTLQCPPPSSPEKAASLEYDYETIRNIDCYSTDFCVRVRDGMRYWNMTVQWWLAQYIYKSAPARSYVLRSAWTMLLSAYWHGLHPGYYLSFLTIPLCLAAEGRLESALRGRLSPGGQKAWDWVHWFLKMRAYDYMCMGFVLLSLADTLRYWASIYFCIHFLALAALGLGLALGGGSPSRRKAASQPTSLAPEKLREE

Row | Binder | binding [1] | also measured
1 | HA-tagged monocyte-to-macrophage differentiation-related (MMD) protein (protein, UniProt Q15546 1-238) MRFKNRFQRFMNHRAPANGRYKPTCYEHAANCYTHAFLIVPAIVGSALLHRLSDDCWEKITAWIYGMGLCALFIVSTVFHIVSWKKSHLRTVEHCFHMCDRMVIYFFIAASYAPWLNLRELGPLASHMRWFIWLMAAGGTIYVFLYHEKYKVVELFFYLTMGFSPALVVTSMNNTDGLQELACGGLIYCLGVVFFKSDGIIPFAHAIWHLFVATAAAVHYYAIWKYLYRSPTDFMRHL | binds | 
2 | MBOAT7 MaMTH prey (membrane-bound O-acyltransferase family member 7) (enzyme, UniProt Q96N66 1-472) MSPEEWTYLVVLLISIPIGFLFKKAGPGLKRWGAAAVGLGLTLFTCGPHTLHSLVTILGTWALIQAQPCSCHALALAWTFSYLLFFRALSLLGLPTPTPFTNAVQLLLTLKLVSLASEVQDLHLAQRKEMASGFSKGPTLGLLPDVPSLMETLSYSYCYVGIMTGPFFRYRTYLDWLEQPFPGAVPSLRPLLRRAWPAPLFGLLFLLSSHLFPLEAVREDAFYARPLPARLFYMIPVFFAFRMRFYVAWIAAECGCIAAGFGAYPVAAKARAGGGPTLQCPPPSSPEKAASLEYDYETIRNIDCYSTDFCVRVRDGMRYWNMTVQWWLAQYIYKSAPARSYVLRSAWTMLLSAYWHGLHPGYYLSFLTIPLCLAAEGRLESALRGRLSPGGQKAWDWVHWFLKMRAYDYMCMGFVLLSLADTLRYWASIYFCIHFLALAALGLGLALGGGSPSRRKAASQPTSLAPEKLREE |  | binding (MMD MaMTH bait): binds
3 | MMD MaMTH prey (protein, UniProt Q15546 1-238) MRFKNRFQRFMNHRAPANGRYKPTCYEHAANCYTHAFLIVPAIVGSALLHRLSDDCWEKITAWIYGMGLCALFIVSTVFHIVSWKKSHLRTVEHCFHMCDRMVIYFFIAASYAPWLNLRELGPLASHMRWFIWLMAAGGTIYVFLYHEKYKVVELFFYLTMGFSPALVVTSMNNTDGLQELACGGLIYCLGVVFFKSDGIIPFAHAIWHLFVATAAAVHYYAIWKYLYRSPTDFMRHL |  | binding [2]: binds
4 | calnexin (protein, UniProt P27824 21-592) HDGHDDDVIDIEDDLDDVIEEVEDSKPDTTAPPSSPKVTYKAPVPTGEVYFADSFDRGTLSGWILSKAKKDDTDDEIAKYDGKWEVEEMKESKLPGDKGLVLMSRAKHHAISAKLNKPFLFDTKPLIVQYEVNFQNGIECGGAYVKLLSKTPELNLDQFHDKTPYTIMFGPDKCGEDYKLHFIFRHKNPKTGIYEEKHAKRPDADLKTYFTDKKTHLYTLILNPDNSFEILVDQSVVNSGNLLNDMTPPVNPSREIEDPEDRKPEDWDERPKIPDPEAVKPDDWDEDAPAKIPDEEATKPEGWLDDEPEYVPDPDAEKPEDWDEDMDGEWEAPQIANPRCESAPGCGVWQRPVIDNPNYKGKWKPPMIDNPSYQGIWKPRKIPNPDFFEDLEPFRMTPFSAIGLELWSMTSDIFFDNFIICADRRIVDDWANDGWGLKKAADGAAEPGVVGQMIEAAEERPWLWVVYILTVALPVFLVILFCCSGKKQTSGMEYKKTDAPQPDVKEEEEEKEEEKDKGDEEEEGEEKLEEKQKSDAEEDGGTVSQEEEDRKPKAEEDEILNRSPRNRKPRRE | no binding | 
